# Assay results published in PMC8888621.
# Protein sequences, listed by entry. Tags and fused reporters are not part of them. Residues count along the entry.
# UniProt Q9QUN7, residues 25-784: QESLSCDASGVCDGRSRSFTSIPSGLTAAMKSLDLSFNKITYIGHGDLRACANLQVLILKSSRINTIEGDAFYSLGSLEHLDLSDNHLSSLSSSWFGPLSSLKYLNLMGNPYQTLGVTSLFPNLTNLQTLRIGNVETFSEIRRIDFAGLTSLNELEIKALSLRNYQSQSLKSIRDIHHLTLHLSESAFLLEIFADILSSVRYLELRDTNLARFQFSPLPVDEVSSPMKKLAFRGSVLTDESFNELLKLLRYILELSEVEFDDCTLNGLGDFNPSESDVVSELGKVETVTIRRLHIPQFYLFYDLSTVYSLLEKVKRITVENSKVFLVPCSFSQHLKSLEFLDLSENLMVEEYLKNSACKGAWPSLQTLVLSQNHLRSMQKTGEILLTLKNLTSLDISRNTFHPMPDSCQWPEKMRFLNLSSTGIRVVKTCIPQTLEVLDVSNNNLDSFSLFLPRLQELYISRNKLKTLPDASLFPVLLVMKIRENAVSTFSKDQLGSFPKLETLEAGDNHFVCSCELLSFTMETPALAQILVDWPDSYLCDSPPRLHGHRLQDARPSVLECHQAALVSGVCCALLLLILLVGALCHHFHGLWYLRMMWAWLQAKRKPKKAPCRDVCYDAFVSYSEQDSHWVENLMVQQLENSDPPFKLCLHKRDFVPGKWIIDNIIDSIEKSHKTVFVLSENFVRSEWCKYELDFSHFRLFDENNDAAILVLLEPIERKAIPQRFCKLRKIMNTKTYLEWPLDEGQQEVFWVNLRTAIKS
# UniProt P22366: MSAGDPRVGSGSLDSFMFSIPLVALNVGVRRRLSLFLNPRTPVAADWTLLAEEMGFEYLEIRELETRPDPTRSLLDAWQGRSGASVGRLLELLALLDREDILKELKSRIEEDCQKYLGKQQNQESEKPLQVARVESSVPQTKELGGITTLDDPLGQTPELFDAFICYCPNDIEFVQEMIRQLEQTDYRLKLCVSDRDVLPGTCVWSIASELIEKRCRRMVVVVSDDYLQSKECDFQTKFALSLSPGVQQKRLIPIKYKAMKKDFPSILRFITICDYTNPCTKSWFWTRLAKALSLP
# Results are given in words; binding and its absence hold for the method and conditions named. In cells and extracts the contact can be indirect. Some binding calls cover weakened binding; strength is not graded here.
# Molecular target: sialylated TLR2 (mouse (endogenous in BMMs)) (UniProt Q9QUN7)
# Test: co-IP; endogenous proteins in lysates (IP buffer with protease inhibitors) of mouse BMMs induced to osteoclasts; IP with anti-TLR2, anti-Siglec15 or anti-DAP12, Protein A/G, immunoblot; in Fig. 5 the BMMs were induced with RANKL, sialidase or both
substance,measurement,value
myeloid differentiation primary response protein 88 (MyD88) (from UniProt P22366 1-296),binding,binds
